This list was built around the results that the source calls inconclusive (neither active nor inactive); the mix of calls is not that of the screen. Potencies of inconclusive entries are doubtful fits and often do not repeat. Calls of active or inactive are those of the source. Calls follow the shape of the dose curve; as a rule, active = well fitted inhibition curve with a large enough effect; inconclusive = small, poorly fitted or top-dose-only effect; inactive = no such curve, though single readings can be large or run the other way.
assay: Confirmation assay for measurement of the activity of small molecule inhibitors on Zika virus induced Caspase-3 activity in human iPSC derived neural progenitor cells (hNPCs); settings: hNPC ZIKV-induced caspase-3/7, Caspase-Glo luminescence, 6 h; series mostly up to 46.1 µM; activity, negative = inhibition: at the top concentration
Source text: National Center for Advancing Translational Sciences [NCATS] Johns Hopkins University School of Medicine Florida State University Assay Overview: Increase in the Caspase-3 activity indicates an activation of apoptosis cell death pathway caused by Zika virus infection in certain types of neuronal cells including human neural progenitor cells (hNPCs), astrocytes, and astrocytoma cell line (SNB-19). This cell-based caspase-3 activity assay measures the increased caspase-3 activity in the human iPSC derived neural progenitor cells (hNPCs) after a 6-hour Zika virus infection with a luminescence readout. A decrease in the luminescence signal in this assay by small molecule treatment indicates an inhibitory effect of that small molecule on the Zika virus induced caspase-3 activity that may correlate with its effect on reduction of Zika virus caused cell death.
Assay Protocol Summary: The medium for hNPCs consists of DMEM/F12, N2 supplement (ThermoFisher, Cat.# 17502048), NEAA (ThermoFisher, Cat. # 11140050), 2 ug/ml heparin, 2 uM cyclopamine, and B27 (ThermoFisher, Cat. # 17504044). A Caspase-Glo 3/7 assay kit (catalog number G8092; Promega, Madison, WI) was used to detect caspase-3 activity induced by Zika virus infection in human cells. The reagent mixture was reconstituted as described in the protocol from the manufacturer. Polystyrene tissue culture treated and PDL coated white plates were obtained from Greiner Bio-One (Monroe, NC). Cells were seeded in 384- or 1536-well assay plates and cultured at 37 C with 5% CO2 for 16 to 20 hours. The typical cell seeding density in the 1536-well plate assay is 350 cells/well in 3 ul medium for hNPCs in tissue culture treated plates. Compounds were added to cells and incubated for one hour before addition of ZIKV solution to cells (2 FFU/cell). After incubation at 37 C with 5% CO2 for 6 hours, the reagent mixture of Caspase-Glo 3/7 assay kit was added to each well, followed by incubation at room temperature for 30 minutes. The luminescence intensity of the assay plates was measured using a ViewLux plate reader (PerkinElmer). Data were normalized by using the cell-containing wells without ZIKV as a negative control (0% induction of caspase 3/7 activity) and wells containing ZIKV infected cells (Caspase-3 activity induced) as a positive control (100% induction of caspase 3 activity). The percentage inhibitions of the increased Caspase-3 activity by small molecule inhibitors were then calculated.

For `Cc1cccc(C#Cc2ccccc2)n1`, which Potency is on record?
Its Potency is active: 3.46 µM.

With `CC[C@]1(O)C[C@H]2CN(CCc3c([nH]c4ccccc34)[C@@](C(=O)OC)(c3cc4c(cc3OC)N(C=O)[C@H]3[C@@](O)(C(=O)OC)[C@H](OC(C)=O)[C@]5(CC)C=CCN6CC[C@]43[C@@H]65)C2)C1` as the compound, how does the “activity, negative = inhibition” value read?
Its value is inactive: 46.5%.

For `COc1ccc(C=CC(=O)Nc2ccccc2C(=O)O)cc1OC`, which Potency is on record?
Its Potency is active: 17.3 µM.

For `COc1ccc(-c2cc(=S)ss2)cc1`, which Potency is on record?
The Potency was inconclusive: 30.8 µM [inhibitor, single point].

Which “activity, negative = inhibition” value does the source give for `Cc1c(NC(=O)c2ccc(C(C)(C)C)cc2)cccc1-c1cn(C)c(=O)c(Nc2ccc(C(=O)N3CCOCC3)cc2)n1` here?
The value was inactive: 26.9%.

With `C=C1C(=O)[C@@]23C(CC[C@@H]1[C@H]2O)[C@@]12CO[C@]3(O)[C@@H](O)[C@@H]1C(C)(C)CC[C@@H]2O` (stereo partly drawn) as the compound, how does the Potency read?
The Potency was inconclusive: 30.8 µM [inhibitor, single point].

Which “activity, negative = inhibition” value does the source give for `CN(C)c1cc(NC(=O)CNC(C)(C)C)c(O)c2c1C[C@@H]1C[C@H]3[C@H](N(C)C)C(=O)C(C(N)=O)=C(O)[C@@]3(O)C(=O)C1=C2O` here?
The value was inactive: -2.46%.

Which Potency does the source give for `OCc1ccc(-c2ccc(-c3ccc(CO)s3)o2)s1` here?
The Potency was inconclusive: 12.3 µM [inhibitor, partial curve, poor fit].

For `CC(=O)OC(C)OC(=O)C(C)c1ccc(-c2ccccc2)c(F)c1` (stereo not drawn), which “activity, negative = inhibition” value is on record?
The value was inactive: -22.6%.

Which Potency does the source give for `c1ccc(CCNc2nc(-c3ccccc3)cs2)cc1` here?
Its Potency is inconclusive: 12.3 µM [inhibitor, partial curve, poor fit].

With `O=C1C(Cl)=C(NCCN2CCOCC2)C(=O)c2ncccc21` as the compound, how does the Potency read?
Its Potency is inconclusive: 7.74 µM [inhibitor, full curve, poor fit].

Which Potency does the source give for `Cc1cc(O)c2ccccc2c1O` here?
The Potency was inconclusive: 6.9 µM [inhibitor, full curve, poor fit].

With `Nc1nc2ccc([N+](=O)[O-])cc2s1` as the compound, how does the Potency read?
Its Potency is inconclusive: 56.2 µM [inhibitor, single point].

For `CC(O)=C(C#N)C(=O)Nc1ccc(C(F)(F)F)cc1`, which Potency is on record?
Its Potency is active: 0.774 µM.

Which Potency does the source give for `CCC(C)SSc1ncc[nH]1` (stereo not drawn) here?
Its Potency is inconclusive: 17.3 µM [inhibitor, partial curve, poor fit].

With `Nc1cc(C(F)(F)F)ccc1S` as the compound, how does the Potency read?
The Potency was inconclusive: 17.3 µM [inhibitor, partial curve].

With `CC1(C)OC2=C(C(=O)c3ccccc3C2=O)[C@H](NCc2ccccc2)[C@H]1O` as the compound, how does the Potency read?
The Potency was inconclusive: 31.6 µM [inhibitor, single point].

Which Potency does the source give for `COc1ccc(/C=C/C(=O)Nc2ccccc2C(=O)O)cc1OC` here?
Its Potency is inconclusive: 9.75 µM [inhibitor, partial curve, poor fit].

For `Cc1oncc1C(=O)Nc1ccc(C(F)(F)F)cc1`, which Potency is on record?
Its Potency is active: 1.38 µM.

Which “activity, negative = inhibition” value does the source give for `CCCCCNC(=O)N1CCC(CN(Cc2ccc(Cl)cc2)Cc2ccc([N+](=O)[O-])s2)C1` (stereo not drawn) here?
The value was inactive: 56.3%.

Which Potency does the source give for `O=C(/C=C/c1ccccc1)NCCO` here?
Its Potency is inconclusive: 27.5 µM [inhibitor, single point].

Which “activity, negative = inhibition” value does the source give for `COc1cc2nc(-c3ccc(N4CCN(C)CC4)cc3)nc(NCCN3CCOCC3)c2cc1OC` here?
Its value is inactive: 69.8%.

Which “activity, negative = inhibition” value does the source give for `CC[C@@]1(O)C[C@H](O[C@H]2C[C@H](N(C)C)[C@H](O[C@H]3C[C@H](O)[C@H](O[C@H]4CCC(=O)[C@H](C)O4)[C@H](C)O3)[C@H](C)O2)c2c(cc3c(c2O)C(=O)c2c(O)cccc2C3=O)[C@@H]1C(=O)OC` here?
Its value is inactive: 65.4%.

With `CC(=O)Oc1ccccc1C(=O)Nc1ncc([N+](=O)[O-])s1` as the compound, how does the Potency read?
The Potency was active: 1 µM.

With `CCCCC1C(=O)N(c2ccccc2)N(c2ccc(O)cc2)C1=O` (stereo not drawn) as the compound, how does the Potency read?
Its Potency is inconclusive: 17.3 µM [inhibitor, partial curve, poor fit].

For `NC(=O)c1cccc2[nH]c(-c3ccc([C@H]4CCCN4)cc3F)nc12`, which Potency is on record?
The Potency was active: 13.8 µM.

Which “activity, negative = inhibition” value does the source give for `O=S(=O)(O)CCSSCCS(=O)(=O)O` here?
Its value is inactive: 18.3%.

Which Potency does the source give for `CC(=O)Oc1cccc2c1C(=O)c1c(OC(C)=O)cc(C(=O)O)cc1C2=O` here?
The Potency was inconclusive: 15.5 µM [inhibitor, partial curve].

Reference: PubChem BioAssay AID1224855 (National Center for Advancing Translational Sciences (NCATS), 2016)
